Test results reported in the supplement of paper PMC3334620.
Over roughly 33,000 sequences, “E-score (-0.5 to 0.5)” has its median near -0.0059; the highest 2% begin near 0.26. Some of the results follow.

Target: T1, Cin5 (UniProt P40917)
T1 sequence: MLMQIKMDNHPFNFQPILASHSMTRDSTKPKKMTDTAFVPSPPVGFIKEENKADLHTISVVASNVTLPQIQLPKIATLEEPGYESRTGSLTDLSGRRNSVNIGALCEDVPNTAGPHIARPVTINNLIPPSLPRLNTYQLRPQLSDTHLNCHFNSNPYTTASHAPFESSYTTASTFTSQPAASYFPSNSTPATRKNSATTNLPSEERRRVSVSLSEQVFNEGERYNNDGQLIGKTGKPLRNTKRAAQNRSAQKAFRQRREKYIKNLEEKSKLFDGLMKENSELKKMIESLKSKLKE
Test: PBM E-score (8-mer binding enrichment) (E-score (-0.5 to 0.5)); higher = stronger / more preferred TF binding
Details: protein concentration: 100 nM; construct: GST-full length
Summary of the method: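 Masliner-normalised scans of fluorescent anti-GST signal were the basis for scoring. That signal came from GST-tagged yeast transcription factors applied at about 100-200 nM to double-stranded universal all-10-mer Agilent arrays on fresh or once-stripped slides. Each ungapped eight-base word, pooled with its reverse complement, received an E-score from the Universal PBM Analysis Suite.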

Sequence | PBM E-score
ATGCCACC | -0.105
ATTATAGC | 0.151
CAGTGGAC | -0.175
ATGCCTCA | -0.0243
CGGAGCAG | -0.0989
GCTGGCGA | -0.13
TAGTCGAA | 0.114
AGTACGAA | 0.167
TATATGCA | 0.0672
CGCCAGCA | -0.232
GTAGTAGA | -0.0361
CAACAACA | 0.213
ACGCCCAG | -0.171
CGCCGACC | -0.282
CCGCACCC | 0.00644
AGGCATCA | -0.227
CGAAGAGA | -0.0316
TCAGATAA | 0.184
AACAGTCC | -0.222
AGATCGCA | -0.00429
AGGAAGCG | 0.0152
ACGGACCT | -0.0998

Sequence | PBM E-score
GGCGGGCA | 0.0277
AGAAGGTG | 0.0112
AGTAGGAG | -0.15
GGGGTAAA | 0.0698
AGAAAGCT | 0.0925
CCGCTAGA | -0.221
CTGGATGA | -0.0113
GGGACTGA | -0.293
ACACTCGG | 0.0922
GCTGGGAC | -0.182
ATACACTG | 0.0347
GACATACC | -0.00245
AATCCGTA | 0.0606
GCACCCTA | -0.126
AATCTTTC | 0.162
GTATGAAC | 0.0601
AATCACTG | 0.163
CACGTCTA | -0.0694
GGTTATAC | -0.104
CACTGCTC | -0.056
CGGTGCGC | -0.146
AGGTCTGG | -0.125

Sequence | PBM E-score
AAGACACT | 0.0469
CGCGAGCG | -0.273
ATGAGAAT | 0.121
ATATACCC | 0.132
AGTTCTTA | 0.0779
CTATACAG | -0.0932
CGCACGAG | -0.225
CCCGTCCC | -0.206
CAAGGCTC | -0.314
CGAGCATA | 0.0589
GTAACTGA | -0.0809
AAGTGCCA | -0.0194
GTTGTGGA | 0.0784
CGAAAAAC | -0.0467
GGATGCAA | -0.0522
CATTACAA | 0.229
AAACTGGA | 0.00419
CAGTATGG | -0.0347
TCAACCGA | 0.15
CGATCGTC | 0.0376
CCACAGTC | -0.291
CAGCGTAA | 0.0543

Sequence | PBM E-score
AAACATAT | 0.269
ATAGGGGC | -0.068
CCGTGAGC | -0.208
ACCGTTCC | 0.0916
AGAGACGA | 0.0484
GCAGTGGC | -0.163
CACCAGTA | -0.0321
AAACGTCG | -0.0495
AATTATGT | 0.304
GAACTGGC | -0.125
AGAAGAGC | -0.111
CCGAATCG | -0.0869
AGACCACA | -0.176
ACTACGCG | -0.192
GAGAGCTC | -0.173
AGATCCAG | 0.0424
ATCAGTTC | -0.0161
AATCGCGT | 0.0962
CTCCACTA | -0.0588
AGTTGGAA | -0.017
AATCGGTA | -0.0477
TCACCTAA | 0.142

Sequence | PBM E-score
GAATGTGA | 0.00014
CATTCGCA | 0.0372
CCCACCAA | 0.0564
AAGGCCCT | -0.136
CTCAAAGC | -0.0355
AGTCGCAA | 0.201
ATTAATAG | 0.272
AGCGTACG | -0.0747
AGGGTCAT | -0.123
AACGTCGT | 0.022
GTGTAGTA | 0.181
CTGGCTGA | -0.0743
ACCTTAGC | 0.122
CCGTAAGA | -0.122
CTAGAACA | -0.0309
AACCCCGA | 0.0362
TGAGCGAA | 0.127
GGGCCCCC | -0.478
TGGTCCAA | -0.157
CTAGGGAG | -0.127
GACCTAAA | -0.0385

Given as labelled records: entries from further up.
CTCAAAGC
  PBM E-score = -0.0355
AGTCGCAA
  PBM E-score = 0.201
ATTAATAG
  PBM E-score = 0.272
